The values below come from publication PMC7818742.

Chains of the proteins cited; added tags and fusions are not shown.
UniProt O82811: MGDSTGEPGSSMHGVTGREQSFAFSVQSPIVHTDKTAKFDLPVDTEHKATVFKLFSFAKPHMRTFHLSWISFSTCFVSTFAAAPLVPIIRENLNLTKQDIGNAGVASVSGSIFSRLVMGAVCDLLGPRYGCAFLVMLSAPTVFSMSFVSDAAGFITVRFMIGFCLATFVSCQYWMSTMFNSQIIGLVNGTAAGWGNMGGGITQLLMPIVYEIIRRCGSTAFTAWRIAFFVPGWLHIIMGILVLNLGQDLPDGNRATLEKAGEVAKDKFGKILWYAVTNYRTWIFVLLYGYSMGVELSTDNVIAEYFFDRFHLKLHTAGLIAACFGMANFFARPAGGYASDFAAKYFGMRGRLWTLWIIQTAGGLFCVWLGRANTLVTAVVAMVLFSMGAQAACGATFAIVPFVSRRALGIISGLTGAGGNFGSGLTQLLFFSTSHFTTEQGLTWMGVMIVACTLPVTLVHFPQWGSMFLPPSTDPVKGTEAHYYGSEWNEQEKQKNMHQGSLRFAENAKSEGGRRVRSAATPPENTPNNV

No constants are given. Whether binding was seen depends on the method and setting. In cells and extracts the contact can be indirect. Some results given as binding are weak or reduced against the parent protein; the word gives no strength. For some assays here: Where a sequence is shown, tags or fusion partners need not be part of it.

For experiment [1], the target named is T1, AtNRT3.1-Nluc (Arabidopsis thaliana (from the prefix At and the locus AT5G50200)) (UniProt Q9FGS5).
T1 sequence: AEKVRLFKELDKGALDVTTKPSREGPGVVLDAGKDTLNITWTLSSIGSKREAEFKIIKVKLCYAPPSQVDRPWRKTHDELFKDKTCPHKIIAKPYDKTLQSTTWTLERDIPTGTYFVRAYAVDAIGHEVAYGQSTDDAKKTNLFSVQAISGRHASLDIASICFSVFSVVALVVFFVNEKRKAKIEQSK
The experiment in a line: split reporter; split-luciferase assay with Nluc and Cluc fusions co-expressed in poplar leaves by syringe agroinfiltration; 2 mM luciferin infiltrated at 5 dpi, luminescence captured by a cooled CCD.

Experiment [2] addresses AtWRKY40 (Arabidopsis thaliana (from the prefix At and the locus AT1G80840)) (UniProt Q9SAH7). The experiment in a line: split reporter; BiFC with YFP^N and YFP^C fusions co-expressed in poplar leaf cells by syringe agroinfiltration; YFP fluorescence observed at 5 dpi, nucleus stained with DAPI.

With “AtNRT2.1-Cluc (from UniProt O82811 1-530)”, the binding result in experiment [1] is recorded as “binds”.

B1: AtWRKY40 (protein, UniProt Q9SAH7 1-302)
chain: MDQYSSSLVDTSLDLTIGVTRMRVEEDPPTSALVEELNRVSAENKKLSEMLTLMCDNYNVLRKQLMEYVNKSNITERDQISPPKKRKSPAREDAFSCAVIGGVSESSSTDQDEYLCKKQREETVVKEKVSRVYYKTEASDTTLVVKDGYQWRKYGQKVTRDNPSPRAYFKCACAPSCSVKKKVQRSVEDQSVLVATYEGEHNHPMPSQIDSNNGLNRHISHGGSASTPVAANRRSSLTVPVTTVDMIESKKVTSPTSRIDFPQVQKLLVEQMASSLTKDPNFTAALAAAVTGKLYQQNHTEK
On to B1, for which the binding entry in experiment [2] is “binds”.
